Results published in paper PMC11555678 (ACS Infectious Diseases, 2024).

Legend:
[1] = general procedure: Fmoc solid-phase peptide synthesis; HCTU; settings: whole synthesis, 220nm
[2] = general procedure: Fmoc solid-phase peptide synthesis; Wang resin; HCTU; settings: whole synthesis, scale 0.1 mmol

## WGGIKONYA
[1]
  final HPLC purity: >95%
[2]
  isolated yield: 66.0%

Where a sequence shows no end group, the ends are not given.
